Laboratory results taken from the supplement of paper PMC12823440, “Inhibitors supercharge kinase turnover through native proteolytic circuits” (Nature, 2025).
Where a name gives a salt, the structure may show the parent alone. This is one part of the list. The calls rarely recur for the same compound in another form.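 In K562 cells expressing nanoluciferase-fused kinases, luminescence was recorded at 4 h intervals between 2 and 18 h, normalized as percent of control with DMSO at 100% and a positive control at 0%. A significant (2 sigma) signal drop marks a time point as decreased. The authors' rule for a hit is not shown and takes in more than the number of time points.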

The chains behind the UniProt entries cited, without tags or fusion partners. Where a name states a change or a piece, a line headed by the entry shows the natural chain unless it says otherwise.
UniProt P29597: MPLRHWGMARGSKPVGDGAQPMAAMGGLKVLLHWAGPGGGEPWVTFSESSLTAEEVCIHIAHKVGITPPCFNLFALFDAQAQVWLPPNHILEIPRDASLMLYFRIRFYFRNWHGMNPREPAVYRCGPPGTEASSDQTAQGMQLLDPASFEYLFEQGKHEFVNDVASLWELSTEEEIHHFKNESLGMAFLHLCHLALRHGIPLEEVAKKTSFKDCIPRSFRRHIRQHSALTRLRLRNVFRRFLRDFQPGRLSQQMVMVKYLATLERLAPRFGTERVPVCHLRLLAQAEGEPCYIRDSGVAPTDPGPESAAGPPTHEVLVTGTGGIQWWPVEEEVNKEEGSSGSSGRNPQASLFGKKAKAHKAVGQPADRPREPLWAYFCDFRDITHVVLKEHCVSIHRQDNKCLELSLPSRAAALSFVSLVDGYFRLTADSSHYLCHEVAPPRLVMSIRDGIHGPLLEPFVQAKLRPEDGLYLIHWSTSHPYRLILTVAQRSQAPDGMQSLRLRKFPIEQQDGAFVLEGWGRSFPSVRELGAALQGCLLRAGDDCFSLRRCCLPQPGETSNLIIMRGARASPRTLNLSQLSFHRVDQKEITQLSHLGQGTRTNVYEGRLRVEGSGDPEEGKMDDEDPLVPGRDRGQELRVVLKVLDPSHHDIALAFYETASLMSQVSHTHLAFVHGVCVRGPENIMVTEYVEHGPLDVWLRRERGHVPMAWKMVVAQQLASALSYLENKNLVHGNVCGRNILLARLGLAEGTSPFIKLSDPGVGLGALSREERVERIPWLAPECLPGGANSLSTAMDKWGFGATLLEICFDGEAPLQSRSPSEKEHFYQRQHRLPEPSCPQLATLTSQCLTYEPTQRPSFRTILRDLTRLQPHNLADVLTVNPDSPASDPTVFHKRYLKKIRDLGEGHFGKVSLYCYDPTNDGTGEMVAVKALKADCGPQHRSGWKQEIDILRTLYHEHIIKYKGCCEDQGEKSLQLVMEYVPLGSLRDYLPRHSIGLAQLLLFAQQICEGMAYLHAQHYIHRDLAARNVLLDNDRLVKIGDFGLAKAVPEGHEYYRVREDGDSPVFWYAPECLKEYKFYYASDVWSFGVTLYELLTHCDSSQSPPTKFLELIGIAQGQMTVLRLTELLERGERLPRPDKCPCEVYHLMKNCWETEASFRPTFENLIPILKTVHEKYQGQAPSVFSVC

molecular target: TYK2 (UniProt P29597); experiment: kinase-Nluc reporter destabilization hit call (1 = scored as downregulated) (binary); higher = compound decreases kinase abundance; conditions: K562; 2-18 h

kinase-Nluc reporter destabilization hit call, inactive:
O=C(O)/C=C(\CCc1ccc(Cl)cc1)c1ccccc1 (10 µM) 0
Cc1cccc(CC(=O)N2CCc3c2ccc(-c2cn(C)c4ncnc(N)c24)c3F)n1 (10 µM) 0
CN(C)CCn1cc2cc(NC(=O)c3cccc(C(F)(F)F)n3)c(C(C)(C)O)cc2n1 (10 µM) 0
Cc1cc(N2CCOCC2)ccc1Nc1nc(NC2CCCCC2)c2[nH]cnc2n1 (10 µM) 0
COc1c(Nc2ncc(Cl)c(N[C@H]3[C@@H](C(N)=O)[C@@H]4C=C[C@H]3C4)n2)ccc2c1CC[C@@H](N1CCOCC1)CC2 (10 µM) 0
COc1cc2ncnc(Nc3cc(Br)c(O)c(Br)c3)c2cc1OC (2.5 µM) 0
Cc1cncc2cccc(S(=O)(=O)N3CCCNC[C@@H]3C)c12 [H-1152 (dihydrochloride)] (10 µM) 0
Nc1ccc(O)c(C(=O)O)c1 [5-Aminosalicylic Acid] (10 µM) 0
CC(C)(C)S(=O)(=O)c1cc2c(Nc3ccc4scnc4c3)ncnc2cc1OCCOP(=O)(O)O (2 µM) 0
CC(C)(CCCCCC(O)CCCCCC(C)(C)C(=O)O)C(=O)O [Bempedoic acid] (10 µM) 0
Cc1n[nH]c2ncc(C(=O)N3CCC[C@H]3c3ccc(Cl)cc3)cc12 (10 µM) 0
CCOC(=O)c1c(Nc2ccccc2Cl)oc(/C=C2\C=Nc3ncccc32)c1O (10 µM) 0
O=C(CCl)c1c[nH]c2ccccc12 (2.5 µM) 0

Fetched one by one from the entries so far, two records:
kinase-Nluc reporter destabilization hit call, inactive:
CCOC(=O)c1c(Nc2ccccc2Cl)oc(/C=C2\C=Nc3ncccc32)c1O (10 µM) 0
O=C(O)/C=C(\CCc1ccc(Cl)cc1)c1ccccc1 (10 µM) 0
